Counter-ions that a name gives are not always drawn. Some of the results follow. Hit calls seldom repeat between salt and free forms of one compound.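 Kinases, fused to nanoluciferase, were expressed in K562 cells; luminescence was measured every 4 h from 2 to 18 h as percent of control (DMSO = 100%, positive control = 0%). A time point is decreased if signal falls significantly (2 sigma). Hits were called by the authors by a rule that is not shown; the count of time points alone does not decide it.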
Molecular target: INSRR (UniProt P14616)
Experiment: kinase-Nluc reporter destabilization hit call (1 = scored as downregulated) (binary); higher = compound decreases kinase abundance
Conditions: K562; 2-18 h

By UniProt entry, the sequences of proteins in these tests, tags left out. Where a name states a change or a piece, a line headed by the entry shows the natural chain unless it says otherwise.
UniProt P14616: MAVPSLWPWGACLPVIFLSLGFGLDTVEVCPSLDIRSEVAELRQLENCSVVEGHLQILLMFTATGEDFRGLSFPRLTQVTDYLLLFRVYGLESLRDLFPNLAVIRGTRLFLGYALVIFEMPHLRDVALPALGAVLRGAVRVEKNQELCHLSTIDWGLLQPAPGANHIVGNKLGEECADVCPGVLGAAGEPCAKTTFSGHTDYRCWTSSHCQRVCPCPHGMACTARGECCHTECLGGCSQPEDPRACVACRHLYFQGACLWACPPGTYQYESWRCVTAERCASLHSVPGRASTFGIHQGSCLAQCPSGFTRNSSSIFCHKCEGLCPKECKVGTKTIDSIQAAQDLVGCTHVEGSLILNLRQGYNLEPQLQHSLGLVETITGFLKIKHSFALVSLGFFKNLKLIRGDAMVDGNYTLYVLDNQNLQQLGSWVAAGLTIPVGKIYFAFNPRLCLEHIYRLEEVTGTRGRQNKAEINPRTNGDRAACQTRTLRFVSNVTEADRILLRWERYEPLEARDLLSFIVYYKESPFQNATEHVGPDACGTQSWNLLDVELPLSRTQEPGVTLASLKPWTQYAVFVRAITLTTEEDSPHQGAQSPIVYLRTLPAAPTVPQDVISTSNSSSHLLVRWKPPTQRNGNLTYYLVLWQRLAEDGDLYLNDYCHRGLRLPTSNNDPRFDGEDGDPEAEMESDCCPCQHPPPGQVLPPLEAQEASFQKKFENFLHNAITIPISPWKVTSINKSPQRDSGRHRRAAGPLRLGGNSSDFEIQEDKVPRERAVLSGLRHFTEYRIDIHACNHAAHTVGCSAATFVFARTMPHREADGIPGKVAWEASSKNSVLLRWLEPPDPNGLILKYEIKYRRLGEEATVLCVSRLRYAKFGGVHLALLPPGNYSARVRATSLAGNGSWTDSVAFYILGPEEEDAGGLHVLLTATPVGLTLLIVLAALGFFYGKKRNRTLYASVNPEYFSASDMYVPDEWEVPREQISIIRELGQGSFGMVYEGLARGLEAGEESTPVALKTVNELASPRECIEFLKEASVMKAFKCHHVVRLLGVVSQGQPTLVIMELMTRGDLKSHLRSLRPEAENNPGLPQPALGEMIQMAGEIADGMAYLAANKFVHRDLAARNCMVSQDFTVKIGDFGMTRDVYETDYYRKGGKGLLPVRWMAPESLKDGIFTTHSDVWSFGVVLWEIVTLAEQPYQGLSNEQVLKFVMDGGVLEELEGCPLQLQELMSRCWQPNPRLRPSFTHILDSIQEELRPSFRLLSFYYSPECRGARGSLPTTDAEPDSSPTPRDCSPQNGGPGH

kinase-Nluc reporter destabilization hit call, inactive:
O=C(N/N=C/c1coc2ccccc2c1=O)c1cccnc1 (10 µM) 0
O=C(Nc1ccc(CN2CCOCC2)cc1)c1ccc(-c2cccc(Cl)c2)o1 (10 µM) 0
NC(=O)c1nnc(N[C@@H]2CCCC[C@@H]2N)nc1Nc1cccc2cc[nH]c12 (10 µM) 0
COc1cc2ncc(-c3ccccc3)nc2cc1OC [Tyrphostin AG1296] (10 µM) 0
O=C(NOCC(O)CO)c1cc(Br)c(F)c(F)c1Nc1ccc(I)cc1F (configuration not stated) (2.5 µM) 0
Cn1cnc(Cn2ccc3ccc(CNCc4[nH]c5ccccc5c4[C@H]4NC(=O)c5ccc(O)cc54)cc32)c1 (10 µM) 0
CC(=O)c1c(C)cc2cccc(O)c2c1O [Nepodin] (10 µM) 0
COc1cc(Nc2ncc(F)c(Nc3ccc4c(n3)N(COP(=O)(O)O)C(=O)C(C)(C)O4)n2)cc(OC)c1OC [Fostamatinib (disodium hexahydrate)] (10 µM) 0
Cc1ccccc1-c1c2nccc(-c3ccc(F)cc3F)c2cc[n+]1[O-] (10 µM) 0
Cn1nccc1Nc1nccc(-c2ccn([C@H](CO)c3ccc(Cl)c(F)c3)c(=O)c2)n1 [Ravoxertinib hydrochloride] (10 µM) 0
Nc1nc(F)nc2c1ncn2[C@@H]1O[C@H](CO)[C@@H](O)[C@@H]1O [Fludarabine] (10 µM) 0
O=C(CSC1=NCCN1)NC1CCCCCC1 [ICCB-19 (hydrochloride)] (2.5 µM) 0
CNC(=O)c1c(F)cccc1Nc1nc(Nc2cc3c(cc2OC)CCN3C(=O)CN(C)C)nc2[nH]ccc12 (10 µM) 0
COc1ccc(-c2ccc3c(N4CCOCC4)nc(N4C[C@@H](C)O[C@@H](C)C4)nc3n2)cc1CO (2.5 µM) 0
CC1=C(C(=O)O)N2C(=O)[C@@H](NC(=O)[C@H](N)C3=CCC=CC3)[C@H]2SC1 [Cephradine] (10 µM) 0
Cc1c(-c2c(F)cc(C(N)=O)c3[nH]c4c(c23)CC[C@H](C(C)(C)O)C4)cccc1-n1c(=O)c2cccc(F)c2n(C)c1=O (2.5 µM) 0
Cn1ncc(Cl)c1-c1cc(C(=O)N[C@H](CN)Cc2ccc(F)c(F)c2)oc1Cl [Uprosertib] (10 µM) 0
Cc1cccc(Oc2cnc(=O)[nH]c2)c1 [Tolimidone] (10 µM) 0
C[C@@H]1CCN(C(=O)CC#N)C[C@@H]1N(C)c1ncnc2[nH]ccc12 [Tofacitinib (citrate)] (10 µM) 0
COc1ccc(OC)c(C2C(C#N)=C(N)Oc3n[nH]c(-c4ccc5ccccc5c4)c32)c1 (configuration not stated) (10 µM) 0
C=C1C(=O)O[C@H]2C[C@H](C)C(/C=C/C(C)=O)=CC[C@H]12 [Xanthatin] (2.5 µM) 0
C[C@]1(O)CCN(c2nc(N3C[C@H](O)[C@@H](O)C3)cc(C(F)(F)F)c2C#N)C1 (10 µM) 0
Cc1cc(Nc2ncnc3ccc(NC4=NC(C)(C)CO4)cc23)ccc1Oc1ccn2ncnc2c1 [Tucatinib (hemiethanolate)] (2.5 µM) 0
CCN1CCN(Cc2ccc(Nc3ncc(F)c(-c4cc(F)c5nc(C)n(C(C)C)c5c4)n3)nc2)CC1 [Abemaciclib (methanesulfonate)] (10 µM) 0
Cc1cc(=O)oc2c(C=O)c(O)ccc12 (10 µM) 0
CC1(C)C(O[C@@H]2OC[C@@H](O)[C@H](O)[C@H]2O)CC[C@]23CC24CC[C@]2(C)[C@@H]([C@@]5(C)CC[C@@H](C(C)(C)O)O5)[C@H](O)C[C@@]2(C)C4C[C@@H](O[C@@H]2O[C@H](CO)[C@@H](O)[C@H](O)[C@H]2O)C13 (some centres not stated) [Astragaloside IV] (10 µM) 0
CC[C@@H](Oc1nc(Oc2cc(C)cc(-c3cccc(CN)c3)c2)c(F)cc1F)C(=O)O (10 µM) 0

From the supplement of paper PMC12823440, “Inhibitors supercharge kinase turnover through native proteolytic circuits” (Nature, 2025)
